The structures given here were assigned with low confidence; some may be wrong.
What follows are molecules tested on Rat brain synaptosomes (assay: Neurotransmitter release from brain synaptosomes). Conditions: in the presence of 10 M of ligand; percentage of release obtained with 10 M (S)-(-)-nicotine or 300 M TMA; tested form: hemigalactarate.
Assay type: cell-based
Description: Neurotransmitter release was measured using techniques similar to those previously published (Bencherif M, et al.:. JPET 279:1413-1421, 1996).
Rat brain synaptosomes were prepared as follows: Female Sprague Dawley rats (100-200 g) were killed by decapitation after anesthesia with 70% CO2. Brains are dissected, and hippocampus, striatum, and thalamus isolated, and homogenized in 0.32 M sucrose containing 5 mM HEPES pH 7.4 using a glass/glass homogenizer. The tissue was then centrifuged for 1000×g for 10 minutes and the pellet discarded. The supernatant was centrifuged at 12000×g for 20 minutes. The resultant pellet was re-suspended in perfusion buffer (128 mM NaCl, 1.2 mM KH2PO4, 2.4 mM KCl, 3.2 mM CaCl2, 1.2 mM MgSO4, 25 mM HEPES, 1 mM Ascorbic acid, 0.01 mM pargyline HCl and 10 mM glucose pH 7.4) and centrifuged for 15 minutes at 25000×g. The final pellet was resuspended in perfusion buffer and placed in a water bath (37° C.) for 10 minutes. Radiolabeled neurotransmitter is added (30 L^3H DA, 20 L^3H NE, 10 L^3H glutamate) to achieve a final concentration of 100 nM, vortexed and placed in a water bath for additional 10 minutes. Tissue-loaded filters is placed onto 11-mm diameter Gelman A/E filters on an open-air support. After a 10-minute wash period, fractions are collected to establish the basal release and agonist applied in the perfusion stream. Further fractions were collected after agonist application to re-establish the baseline. The perfusate was collected directly into scintillation vials and released radioactivity was quantified using conventional liquid scintillation techniques. Release of neurotransmitter was determined in the presence of 10 M of various ligands and was expressed as a percentage of release obtained with a concentration of 10 M (S)-(−)-nicotine or 300 MTMA resulting in maximal effects.
CNCCCOc1cncc(OC)c1 gave a neurotransmitter release of 54%.
For CNCCCOc1cncc(OCc2ccccc2)c1, the neurotransmitter release was 38%.
Work on CNC(C)CCOc1cncc(Cl)c1 (stereo not drawn) yielded a neurotransmitter release of 30%.
With CNC(C)CCOc1cccnc1 (stereo not drawn) the neurotransmitter release was 49%.
With CNCCCOc1ccc(C)nc1 the neurotransmitter release was 77%.
CNCCCOc1cccc(N(C)C)c1 showed a neurotransmitter release of 16%.
CNCCCOc1cccc([N+](=O)[O-])c1 was tested, and the neurotransmitter release was 67%.
Work on CNCCCCOc1cccnc1 yielded a neurotransmitter release of 56%.
In the case of NCCCOc1cccc(N)c1, the neurotransmitter release is reported as 14%.
CCNCCCOc1cccnc1 was tested, and the neurotransmitter release was 57%.
Molecule CN(C)CCCOc1cccnc1 has a neurotransmitter release of 32%.
With CNCCCOc1cccnc1C the neurotransmitter release was 69%.
CNCCCOc1ccc2c(c1)OCO2 gave a neurotransmitter release of 41%.
Molecule CNCCCOc1cncc(Cl)c1 has a neurotransmitter release of 100%.
Work on CN(C)CCCCOc1cccnc1 yielded a neurotransmitter release of 24%.
NCCCCOc1cccnc1 gave a neurotransmitter release of 100%.
Work on c1cncc(OCCCNC2CC2)c1 yielded a neurotransmitter release of 51%.

Same assay, conditions: in the presence of 10 M of ligand; percentage of release obtained with 10 M (S)-(-)-nicotine or 300 M TMA; tested form: monogalactarate
CNCCCOc1cncc(OC(C)C)c1 gave a neurotransmitter release of 36%.

Reference: patent US6627648B1, “Pharmaceutical compositions and methods for use” (Targacept, Inc., priority 1999, dated 2003)
